# Reference: article PMC7310287
# Protein sequences, listed by entry. Tags and fused reporters are not part of them.
# UniProt P63208: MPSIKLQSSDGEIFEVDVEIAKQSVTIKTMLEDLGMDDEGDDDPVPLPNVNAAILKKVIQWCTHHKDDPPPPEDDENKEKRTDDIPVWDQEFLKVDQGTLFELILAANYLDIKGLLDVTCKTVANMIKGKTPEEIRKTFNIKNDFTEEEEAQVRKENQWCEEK
# No constants are given. Whether binding was seen depends on the method and setting. Binding seen in cells or lysates may run through a third protein. Here binding means that the protein was enriched with, or labelled near, the bait; the list need not be complete. Where a sequence is shown, tags or fusion partners need not be part of it.
# Target: T1, Flag-FBXL6 (human) (UniProt Q8N531)
# T1 sequence: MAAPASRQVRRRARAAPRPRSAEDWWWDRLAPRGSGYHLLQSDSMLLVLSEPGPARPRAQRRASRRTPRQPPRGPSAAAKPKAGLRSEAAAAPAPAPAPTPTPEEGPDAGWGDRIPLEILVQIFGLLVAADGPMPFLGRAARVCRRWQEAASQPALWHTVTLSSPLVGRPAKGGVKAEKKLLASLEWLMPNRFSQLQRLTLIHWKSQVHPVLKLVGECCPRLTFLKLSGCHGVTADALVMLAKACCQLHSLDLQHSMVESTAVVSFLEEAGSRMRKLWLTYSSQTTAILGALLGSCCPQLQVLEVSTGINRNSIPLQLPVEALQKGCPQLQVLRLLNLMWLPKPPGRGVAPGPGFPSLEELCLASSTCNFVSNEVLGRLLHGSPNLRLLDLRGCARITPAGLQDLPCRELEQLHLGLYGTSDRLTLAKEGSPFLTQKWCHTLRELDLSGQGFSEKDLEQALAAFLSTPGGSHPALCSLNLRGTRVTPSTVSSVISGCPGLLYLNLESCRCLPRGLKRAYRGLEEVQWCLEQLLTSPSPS
# Assay: affinity purification with mass spectrometry; lysates of 293T cells transfected with Flag-con or Flag-FBXL6, IP with Flag M2 beads overnight at 4 °C, eluted by boiling, SDS-PAGE, Coomassie staining, mass spectrometry
row,binding,Substance
1,binds,HSP90AA1 (from UniProt P07900 1-732)
2,binds,SKP1 (from UniProt P63208 1-163)
